Experimental data as given in PMC9763339.
No constants are given. Whether binding was seen depends on the method and setting. In cells and extracts the contact can be indirect.

Chains of the proteins cited; added tags and fusions are not shown. Residues count along the entry.
UniProt Q8Y9T5, residues 37-205: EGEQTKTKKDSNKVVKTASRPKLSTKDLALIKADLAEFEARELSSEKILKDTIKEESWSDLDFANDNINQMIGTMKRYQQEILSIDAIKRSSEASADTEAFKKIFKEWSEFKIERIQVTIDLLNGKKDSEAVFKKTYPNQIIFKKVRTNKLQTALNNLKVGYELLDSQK
UniProt P52756: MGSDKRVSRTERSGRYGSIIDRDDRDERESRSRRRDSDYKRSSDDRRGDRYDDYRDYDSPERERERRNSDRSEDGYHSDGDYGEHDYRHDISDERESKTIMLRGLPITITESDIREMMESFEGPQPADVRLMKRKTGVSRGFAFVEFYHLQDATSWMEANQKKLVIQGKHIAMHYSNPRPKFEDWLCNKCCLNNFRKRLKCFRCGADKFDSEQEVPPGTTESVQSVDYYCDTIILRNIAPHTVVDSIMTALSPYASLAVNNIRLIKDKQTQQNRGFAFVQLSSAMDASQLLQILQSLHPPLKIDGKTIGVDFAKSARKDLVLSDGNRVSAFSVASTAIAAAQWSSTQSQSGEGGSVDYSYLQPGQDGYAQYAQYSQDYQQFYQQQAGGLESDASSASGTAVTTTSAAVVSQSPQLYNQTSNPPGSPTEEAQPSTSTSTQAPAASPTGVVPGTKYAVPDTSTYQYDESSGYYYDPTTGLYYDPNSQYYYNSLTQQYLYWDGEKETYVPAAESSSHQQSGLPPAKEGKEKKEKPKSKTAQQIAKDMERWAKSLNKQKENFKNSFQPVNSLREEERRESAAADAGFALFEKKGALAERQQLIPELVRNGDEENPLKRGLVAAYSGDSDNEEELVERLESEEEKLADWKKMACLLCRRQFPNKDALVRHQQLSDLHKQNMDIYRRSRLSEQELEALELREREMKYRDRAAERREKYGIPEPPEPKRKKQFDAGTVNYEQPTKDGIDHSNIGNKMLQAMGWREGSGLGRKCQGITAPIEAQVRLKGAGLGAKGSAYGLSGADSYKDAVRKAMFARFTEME

Molecular target: GST-LntA (L. monocytogenes) (UniProt Q8Y9T5)
Assay: pull-down; GST fusion proteins on magnetic glutathione beads incubated overnight at 4 °C with nuclear extracts of HEK293-FT cells transfected with RBM5-Myc; washes in 20 mM Tris pH 7.65, 150 mM NaCl, 0.5% IGEPAL; only the target purified

With RBM5-Myc (from UniProt P52756 1-815) the binding was “no binding”.
